The campaign covered roughly 1,800 compounds. Fewer than 10 were called active.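 Rule for the calls: active = inhibition of granule release above a set limit; inactive = the rest.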 The list shows a part of the results.
Test: LAMP-1 surface externalization blockers in TALL-104 cells – cell-based, flow cytometry, validation set (AID 651664)
Settings: TALL-104 LAMP-1 externalization, at 15.2 µM, stronger effect = higher value, stimulated with thapsigargin and PMA

Structure (SMILES) | inhibition
CN(C)CCCn1c(N)c(C#N)c2nc(C#N)c(C#N)nc21 | inactive: -4.1%
Cc1ccccc1S(=O)(=O)Cc1ccc(C(=O)NCCN2CCCCC2C)o1 (centres undefined) | inactive: -1.1%
O=C(N/N=C/c1ccc(O)cc1)c1ccc(NC(=O)c2ccccc2Br)cc1 | inactive: 2.1%
CCOC(=O)c1c(C)n(C)c2ccc(O)c(CN(C)C)c12 | inactive: 20.7%
COc1ccc(C2CC(c3c(-c4ccccc4)c4cc(Cl)ccc4[nH]c3=O)=NN2S(C)(=O)=O)cc1OC (centres undefined) | inactive: -1.3%
O=C(CCCN1C(=O)c2cccc3cccc(c23)C1=O)N1CCc2ccccc2C1 | inactive: -1.6%
COC(=O)CN1C(=O)CSc2ncccc21 | inactive: 0.6%
Cc1ccccc1NC(=O)c1nc[nH]c1C(=O)NCc1ccccc1 | inactive: 2.2%
COc1cccc2cc(C(=O)Nc3cccc(C)n3)c(=O)oc12 | inactive: 4.9%
CC(CSc1nc2ccccc2s1)Cn1c(N2CCCC2)nc2c1c(=O)[nH]c(=O)n2C (centres undefined) | inactive: -0.5%
CCc1cc(C(c2ccc(F)cc2)N2CCOCC2)c(NC(=O)c2ccccc2)s1 (centres undefined) | inactive: 7.6%
CCOC(=O)c1c(C)n(C)c2ccc(OCCN(C)C)cc12 | inactive: 7.6%
O=C(NCCc1ccc(F)cc1)c1cccs1 | inactive: 0.6%
Cc1ccc(CNC(=O)C2CC(=O)N(C3CCCCCCC3)C2)cc1 (centres undefined) | inactive: -2.7%
Cc1cc(C)n2[nH]c(=O)c(N=Nc3cccc(Cl)c3)c2n1 | inactive: -3.3%
O=C1c2ccccc2C(=O)N1CCC(c1ccc(F)cc1)c1ccco1 (centres undefined) | inactive: 0.1%
COc1ccc(CC(=O)NC(C)c2nnc(SCc3nc4ccccc4c(=O)[nH]3)n2C)cc1 (centres undefined) | inactive: 0.7%
O=c1c2cnn(-c3ccccc3)c2ncn1Cc1cccnc1 | inactive: -0.5%
COc1ccccc1C(=O)Nc1cc(Cl)ccc1O | inactive: -2.7%
O=C(Nc1ccccc1)N1CCSCC1 | inactive: -3.9%
CCOC(=O)C1CCN(CC(=O)Nc2c(C(=O)OC)[nH]c3ccc(Cl)cc23)CC1 | inactive: -3.8%
O=C(CCCN1C(=O)C2CCCCN2C1=O)N1CCN(c2ccc([N+](=O)[O-])cc2)CC1 (centres undefined) | inactive: -3.3%
CCOC(=O)Cc1c(C)nc2c(-c3ccc(Cl)cc3)c[nH]n2c1=O | inactive: -2.3%
O=C1c2ccccc2-c2nnc(-c3ccccc3)cc21 | inactive: -4.3%
CC1=CC=CN2CC(O)CN=C12 (centres undefined) | inactive: 1%

Molecules shown so far that contain a furan ring, fused or not, in the order listed:
Structure (SMILES) | inhibition
Cc1ccccc1S(=O)(=O)Cc1ccc(C(=O)NCCN2CCCCC2C)o1 (centres undefined) | inactive: -1.1%
O=C1c2ccccc2C(=O)N1CCC(c1ccc(F)cc1)c1ccco1 (centres undefined) | inactive: 0.1%

Following part:

Structure (SMILES) | inhibition
CC1(C)C(=O)N(OCc2ccccc2)C(C)(C)C(=O)N1OCc1ccccc1 | inactive: -2.5%
CCOc1ccccc1NC(=O)c1cccnc1 | inactive: -2.6%
O=S(=O)(NCc1ccccc1)c1cccs1 | inactive: -1.5%
O=C(CSc1ncn[nH]1)NC12CC3CC(CC(C3)C1)C2 | inactive: 2.2%
CN(C)/C=N/C(=S)Nc1ccccc1F | inactive: -0.8%
CC(O)c1c(OCc2ccccc2)ncnc1OCc1ccccc1 (centres undefined) | inactive: 2.8%
CC1CCCC(NC(=O)COC(=O)c2c[nH]c(=O)[nH]c2=O)C1C (centres undefined) | inactive: -2.4%
Cc1[nH]c2ccccc2c1C(=O)COC(=O)C1CC(=O)N(Cc2ccccc2)C1 (centres undefined) | inactive: -2.1%
COCCN(C(=O)c1ccco1)c1nnc(-c2ccc(OC)c(OC)c2)s1 | inactive: 0.9%
Nc1ccc2c(c1)C(=O)N(CCCC(=O)O)C2=O | inactive: -1.7%
O=c1[nH]c2cccnc2n1Cc1ccccc1 | inactive: 4.3%
CCOc1ccc(C(=O)COc2ccc(NC(C)=O)cc2)cc1 | inactive: -3.8%
Cc1nc2ccc(S(=O)(=O)N(C)CC(=O)N3CCc4ccccc4C3)cc2s1 | inactive: 3.6%
O=c1c2c([nH]c3ccc(Br)cc13)CCCC2 | inactive: 4.2%
O=C(NCC1CCCO1)c1ccc2c(c1)C(=O)N(C1CCCCC1)C2=O (centres undefined) | inactive: -1.5%
COc1ccccc1C(c1nnnn1C(C)(C)C)N1CCCc2ccccc21 (centres undefined) | inactive: 4.7%
c1ccc(COc2ccc(-c3csnn3)cc2)cc1 | inactive: -0.3%
Cc1ccc(S(=O)(=O)N2CCN(C(C)C(=O)N3CCCc4ccccc43)CC2)cc1 (centres undefined) | inactive: -2.3%
Cn1cc(C(=O)c2ccc(Cl)cc2Cl)cc1C(=O)N/N=C(\N)COc1ccccc1 | inactive: -1.3%
CCOC(=O)c1sc2nc(CC(=O)OC)nc(NCc3ccco3)c2c1C | inactive: -2.3%
O=C(Nc1cccc(Cl)c1)Nc1nc(-c2ccc(Cl)cc2)cs1 | inactive: -1.9%
C=CCOn1c(=O)c(-c2ccc(OC)cc2)[n+]([O-])c2ccccc21 | inactive: 2.5%
COc1cccc(C(C)NC(=O)Nc2cccc(C(F)(F)F)c2)c1 (centres undefined) | inactive: 0.9%
COc1ccc(-c2nc3n(c(=O)c2C#N)CCCS3)cc1 | inactive: 1.5%
O=C1c2ccccc2-c2c1nc1c([n+]2[O-])CCCC1 | inactive: -5.1%

Structure (SMILES) | inhibition
CC(C)c1nnc(NC(=O)c2c(O)c3cccc4c3n(c2=O)CCC4)s1 | inactive: 2.7%
Fc1ccc(CSc2nnc(CN3CCOCC3)n2-c2ccccc2)c(Cl)c1 | inactive: -2.2%
Cn1c(Cl)c(C(=O)Nc2ccccc2)c2ccccc21 | inactive: -1.3%
O=C(CC(=O)NC1CCCCC1)N/N=C/c1cccc2ccccc12 | inactive: 0.1%
COc1cccc(CNCCc2c[nH]c3ccccc23)c1OCc1ccc(F)cc1 | inactive: 6.3%
Brc1ccc(-c2nc(-c3ccccn3)no2)o1 | inactive: -2.5%
O=C(/C=C/Nc1cccc(C(F)(F)F)c1)c1ccc(Oc2ncccn2)cc1 | inactive: -1%
O=C(NCc1cccnc1)c1ccc(CS(=O)(=O)Cc2ccc(Cl)cc2)o1 | inactive: -2.8%
CCC(C)(C)C1CCC2(CC1)NC(CO)(CO)CO2 (centres undefined) | inactive: -0.4%
CCOC(=O)c1c(-c2cccs2)csc1NC(=O)CN1CCOCC1 | inactive: -3.3%
Cc1ccc2nc(C)cc(N3CCOCC3)c2c1 | inactive: -0.9%
Cc1cc2c(cc1C)NC(c1cccnc1)C1=C(CC(C)(C)CC1=O)N2 (centres undefined) | inactive: -3.9%
O=C1CSC(=NC2CCCCC2)N1 | inactive: 3.9%
Cc1oc2nc(SCCCC(=O)NCCO)nc(N)c2c1C | inactive: 2.7%
CC(C)OC(=O)NCN1C(=O)C2C3C=CC(C3)C2C1=O (centres undefined) | inactive: 0%
CCN(CC)CCNC(=O)c1ccc(N2CCCCC2)c(NS(=O)(=O)c2ccc(C)cc2)c1 | inactive: 1.6%
Clc1ccc(CSc2nnc(NC3=NCCCCC3)s2)cc1 | inactive: -2.4%
N#Cc1cnn(-c2nc3sc4c(c3c(=O)[nH]2)CCCC4)c1N | inactive: 2.3%
COc1ccc(N2C(=O)C(Cl)=C(Nc3ccccc3O)C2=O)cc1 | inactive: 0.2%
O=[n+]1c2c(n([O-])c3cc(Br)ccc31)CCC2 | inactive: -1%
Clc1cnc(N/N=C/c2cccs2)c(Cl)c1 | inactive: 0.4%
CCOC(=O)c1sc(NC(=O)CSc2nnnn2-c2ccc(C)c(C)c2)nc1C | inactive: -1.4%
COC(=O)c1nn(C23CC4CC(CC(C4)C2)C3)c2c1C(=O)N(c1ccc(Br)cc1)C2=O | inactive: -3%
CCCCCc1nc2sc3c(c2c(=O)n1N)CCC3 | inactive: 4.8%
CS(=O)(=O)N(CC(=O)Nc1ccccc1Sc1ccccc1)c1ccc(F)cc1 | inactive: 6.1%

Structure (SMILES) | inhibition
CC1(C)CC2(CC(C)(C)NC(=O)N2)NC(=O)N1 | inactive: 1.8%
Cc1cccc(N2CCN(CC(=O)Nc3ccc(-n4cnnn4)cc3)CC2)c1C | inactive: -0.6%
COc1cc2c(cc1OC)CN(C(=O)c1cc(=O)c3ccccc3o1)CC2 | inactive: -1.9%
CCCOc1ccccc1N/C(=N\S(=O)(=O)c1ccc(C)cc1)Nc1nc(C)cc(C)n1 | inactive: -1.5%
COc1cccc(OC)c1C(=O)Nc1cc(C)on1 | inactive: -2.4%
Cc1ccc(C(=O)NC(=S)Nc2ccc(-c3cc4ccccc4oc3=O)cc2)c(C)c1 | inactive: -0.7%
CC(C)c1nc(SCC(=O)Nc2ccc3c(c2)OCO3)n[nH]1 | inactive: -1.1%
CCCSc1cc(N2CCN(C)CC2)nc(-c2ccc(OC)cc2)n1 | inactive: 0.9%
COc1cccc2c(=O)cc(C)n(CC(=O)Nc3ccc(C)c(C)c3)c12 | inactive: 1.1%
COc1ccc(C2CCCN2C(=O)c2cccs2)cc1 (centres undefined) | inactive: -2.5%
CCCN(CCC)Cc1cc2ccccc2c2c1COC2 | inactive: 6.5%
C[C@@H]1C[C@H](Nc2ccccc2)c2ccccc2N1C(=O)c1cccnc1 | inactive: 2.8%
O=C(Nc1ccc(N2CCOCC2)cc1)c1ccc(Cl)nc1 | inactive: 2.6%
O/N=C(\c1ccc(Cl)cc1Cl)c1ncc(C(F)(F)F)cc1Cl | inactive: 1.2%
O=C1CCCC2=C1C(c1ccco1)Nc1ccc3ccccc3c12 (centres undefined) | inactive: 2.9%
CCn1c2c(c3ccc(OC)cc31)CCCC2=O | inactive: -1%
Cc1ccccc1OCC(=O)Nc1cccc(NC(=O)c2ccco2)c1 | inactive: 1.8%
CC1CCN(CC(=O)N2CCCc3c2c(=O)oc2ccc(OCc4ccccc4)cc32)CC1 | inactive: -1.7%
CCOC(=O)c1nn(-c2ccccc2C)c2nc(-c3ccc(Cl)cc3)c(C#N)c(=O)n12 | inactive: 2.1%
CCOC(=O)CC1(C)NC(=O)c2c(C)sc(C(=O)OCC)c2N1 (centres undefined) | inactive: 0.1%
COC(=O)/C(=C\Nc1ccc(Cl)cc1Cl)NC(=O)c1ccc(Cl)cc1Cl | inactive: 3.3%
O=C(Cc1sc(-c2ccccc2)nc1-c1ccccc1)Nc1ccc(Cl)cc1 | inactive: 2.9%
Cc1ccc(-n2nc(C)c3cc(C(=O)O)sc32)cc1 | inactive: 5.6%
CCc1sc(N(C(=O)Cc2ccccc2)c2ccc(F)cc2)nc1-c1ccccc1 | inactive: 6.3%

Reference: PubChem BioAssay AID651664 (NMMLSC, 2012)
